Results published in PMC7926544.
Results are given in words; binding and its absence hold for the method and conditions named. Binding seen in cells or lysates may run through a third protein. Some results given as binding are weak or reduced against the parent protein; the word gives no strength. Tags and fused reporters may be left off the sequences shown.

By UniProt entry, the sequences of proteins in these tests, tags left out.
UniProt P0DMV8: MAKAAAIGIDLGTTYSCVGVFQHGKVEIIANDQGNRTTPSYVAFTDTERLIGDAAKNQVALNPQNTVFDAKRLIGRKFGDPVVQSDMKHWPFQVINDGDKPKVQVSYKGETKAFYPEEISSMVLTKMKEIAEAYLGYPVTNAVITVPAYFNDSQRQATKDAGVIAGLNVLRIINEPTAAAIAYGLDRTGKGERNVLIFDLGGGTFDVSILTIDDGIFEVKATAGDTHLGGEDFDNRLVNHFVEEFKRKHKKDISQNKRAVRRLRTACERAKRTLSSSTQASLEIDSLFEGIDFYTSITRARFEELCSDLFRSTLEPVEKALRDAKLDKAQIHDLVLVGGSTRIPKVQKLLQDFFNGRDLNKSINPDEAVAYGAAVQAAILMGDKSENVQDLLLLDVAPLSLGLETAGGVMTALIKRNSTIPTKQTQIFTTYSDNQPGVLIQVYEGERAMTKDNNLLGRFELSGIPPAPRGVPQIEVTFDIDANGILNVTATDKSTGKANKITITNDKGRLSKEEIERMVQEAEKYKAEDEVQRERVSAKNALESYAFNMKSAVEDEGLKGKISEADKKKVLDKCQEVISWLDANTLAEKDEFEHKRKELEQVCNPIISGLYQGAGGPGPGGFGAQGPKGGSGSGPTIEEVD

Assays:
[1] = target: T1, GFP-STCH (UniProt P48723); assay: co-IP; OKP cells transiently transfected with Myc-NKCC2 and GFP-STCH; lysate immunoprecipitated with anti-GFP, blot for NKCC2
T1 sequence: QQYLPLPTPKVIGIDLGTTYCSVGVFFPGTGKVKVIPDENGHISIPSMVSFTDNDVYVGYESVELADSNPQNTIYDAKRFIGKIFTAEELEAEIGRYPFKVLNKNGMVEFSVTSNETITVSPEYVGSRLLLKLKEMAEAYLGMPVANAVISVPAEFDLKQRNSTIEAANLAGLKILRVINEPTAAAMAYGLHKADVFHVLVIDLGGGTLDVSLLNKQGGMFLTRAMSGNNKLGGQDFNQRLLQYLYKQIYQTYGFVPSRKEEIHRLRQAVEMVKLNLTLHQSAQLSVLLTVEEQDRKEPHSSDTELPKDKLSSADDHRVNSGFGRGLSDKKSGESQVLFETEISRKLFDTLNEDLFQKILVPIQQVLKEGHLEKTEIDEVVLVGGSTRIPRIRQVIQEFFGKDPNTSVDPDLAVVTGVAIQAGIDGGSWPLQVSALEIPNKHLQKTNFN

[2] = target: Myc-Hsp70 (stress-inducible heat shock protein 70) (UniProt P0DMV8); assay: co-IP; OKP cells transiently transfected with Myc-NKCC2 and Myc-Hsp70; lysate immunoprecipitated with anti-Hsp70, blot with anti-Myc
[3] = target: T1, GFP-STCH; assay: co-IP; HEK cells transiently transfected with Myc-NKCC2 and GFP-STCH; lysate immunoprecipitated with anti-GFP, protein G-agarose beads, blot with anti-Myc; lysis buffer 0.4 M NaCl, 0.5% Nonidet P-40, 10 mM Hepes pH 7.9

Measured: binding

B1: Myc-NKCC2 (mouse Na-K-2Cl co-transporter NKCC2) (protein, UniProt P55014 1-1095)
chain: MSVSIPSNSVPSSASRFQVHVINEGHGSAAAVGDSADPPHYEETSFGDEAQNRLRISFRPGNQECYDNFLQTGETAKTDTTFHAYDSHTNTYYLQTFGHNTMDAVPKIEYYRNTGSVSGPKVNRPSLLEIHEQLAKNVTVAPGSADRVANGDGMPGDEQAENKEEDMTGVVKFGWVKGVLVRCMLNIWGVMLFIRLSWIVGEAGIGLGVLIILLSTMVTSITGLSTSAIATNGFVRGGGAYYLISRSLGPEFGGSIGLIFAFANAVAVAMYVVGFAETVVDLLKESDSMMVDPTNDIRIIGSITVVILLGISVAGMEWEAKAQVILLVILLIAIANFFIGTVIPSNNEKKSRGFFNYQASIFAENFGPSFTKGEGFFSVFAIFFPAATGILAGANISGDLEDPQDAIPRGTMLAIFITTVAYIGVAICVAACVVRDATGSMNDTIVSGMNCNGSAACGLGYDFSRCQHEPCQYGLMNNFQVMSMVSGFGPLITAGIFSATLSSALASLVSAPKVFQALCKDNIFKGLQFFAKGYGKNNEPLRGYFLTFVIAMAFILIAELNVIAPIISNFFLASYALINFSCFHASYAKSPGWRPAYGIYNMWVSLFGAILCCAVMFVINWWAAVITYVIELFLYIYVTYKKPDVNWGSSTQALSYVSALDNALELTTVEDHVKNFRPQCIVLTGGPMTRPALLDITHAFTKNSGLCICCEVFVGPRKLCVKEMNSGMAKKQAWLIKNKIKAFYAAVAADCFRDGVRSLLQASGLGRMKPNTLVIGYKKNWRKAPLSELENYVGIIHDAFDFEIGVVIVRISQGFDISPVLQVQDELEKLEQERLALEAAIKDNECEEGKGGIRGLFKKAGKLNITKPAPKKDGNISSIQSMHVGEFNQKLVEASAQFKKKQGKGTIDVWWLFDDGGLTLLIPYILTLRKKWKDCKLRIYVGGKITRIEEEKISMASLLSKFRIKFADIHIIGDINIKPNKESWKVFEEMIEPYRLHESHKDLTTAEKLKRESPWKITDAELEAVKEKSYRQVRLNELLQEHSRAANLIVLSLPVARKGSISDLLYMAWLEILTKNLPPVLLVRGNHKNVLTFYS
binds: all assays above
